The other results are listed elsewhere or left out.
Key:
Assay in all cases: glycan array binding signal (z-score within array); higher = stronger binding
Conditions in all cases: glycan notation: IUPAC condensed, linker removed
Gal6S(b1-4)Glc = target: Gal6S(b1-4)Glc
In short: (§1)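 The Consortium for Functional Glycomics database supplied 3228 glycan arrays, of which those lacking an available protein sequence were dropped. The binding signal, a within-array Z-score, was averaged across arrays of the same protein sequence and across linkers. Negative scores can be read as non-binding.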

Gal6S(b1-4)Glc6S = target: Gal6S(b1-4)Glc6S
In short: as §1

Gal6S(b1-4)GlcNAc = target: Gal6S(b1-4)GlcNAc
In short: as §1

Gal6S(b1-4)GlcNAc6S = target: Gal6S(b1-4)GlcNAc6S
In short: as §1

GalNAc(a1-3)Gal = target: GalNAc(a1-3)Gal
In short: as §1

GalNAc(a1-3)GalNAc = target: GalNAc(a1-3)GalNAc
In short: as §1

[1] = target: GalNAc(a1-3)GalNAc(b1-3)Gal(a1-4)Gal(b1-4)Glc
In short: as §1

[2] = target: GalNAc(a1-3)GalNAc(b1-3)Gal(a1-4)Gal(b1-4)GlcNAc
In short: as §1

GalNAc(b1-3)Gal = target: GalNAc(b1-3)Gal
In short: as §1

[3] = target: GalNAc(b1-3)Gal(a1-4)Gal(b1-4)GlcNAc
In short: as §1

[4] = target: GalNAc(b1-3)Gal(a1-4)Gal(b1-4)GlcNAc(b1-3)Gal(b1-4)Glc
In short: as §1

[5] = target: GalNAc(b1-3)Gal(a1-6)Gal(b1-4)Glc
In short: as §1

GalNAc(b1-3)GalNAc = target: GalNAc(b1-3)GalNAc
In short: as §1

GalNAc(b1-3)GlcNAc = target: GalNAc(b1-3)GlcNAc
In short: as §1

GalNAc(b1-4)Gal(b1-4)Glc = target: GalNAc(b1-4)Gal(b1-4)Glc
In short: as §1

GalNAc(b1-4)GlcNAc = target: GalNAc(b1-4)GlcNAc
In short: as §1

[6] = target: GalNAc(b1-4)GlcNAc(b1-2)Man
In short: as §1

[7] = target: GalNAc(b1-4)GlcNAc(b1-2)Man(a1-3)[GalNAc(b1-4)GlcNAc(b1-2)Man(a1-6)]Man(b1-4)GlcNAc(b1-4)GlcNAc
In short: as §1

[8] = target: GalNAc(b1-4)GlcNAc(b1-3)GalNAc(b1-4)GlcNAc
In short: as §1

GalNAc(b1-4)GlcNAc6S = target: GalNAc(b1-4)GlcNAc6S
In short: as §1

GalNAc(b1-6)GalNAc = target: GalNAc(b1-6)GalNAc
In short: as §1

GalNAc3S(b1-4)GlcNAc = target: GalNAc3S(b1-4)GlcNAc
In short: as §1

GalNAc3S(b1-4)GlcNAc3S = target: GalNAc3S(b1-4)GlcNAc3S
In short: as §1

[9] = target: GalNAc3S(b1-4)[Fuc(a1-3)]GlcNAc
In short: as §1

GalNAc4S6S(b1-4)GlcNAc = target: GalNAc4S6S(b1-4)GlcNAc
In short: as §1

GalNAc6S(b1-4)GlcNAc = target: GalNAc6S(b1-4)GlcNAc
In short: as §1

Glc(a1-4)Glc = target: Glc(a1-4)Glc
In short: as §1

[10] = target: Glc(a1-4)Glc(a1-4)Glc(a1-4)Glc
In short: as §1

Glc(a1-6)Glc(a1-6)Glc = target: Glc(a1-6)Glc(a1-6)Glc
In short: as §1

[11] = target: Glc(a1-6)Glc(a1-6)Glc(a1-6)Glc
In short: as §1

Glc(b1-4)Glc = target: Glc(b1-4)Glc
In short: as §1

Glc(b1-6)Glc = target: Glc(b1-6)Glc
In short: as §1

GlcA(b1-3)Gal = target: GlcA(b1-3)Gal
In short: as §1

GlcA(b1-3)GlcNAc = target: GlcA(b1-3)GlcNAc
In short: as §1

GlcA(b1-6)Gal = target: GlcA(b1-6)Gal
In short: as §1

[12] = target: GlcA3S(b1-3)Gal(b1-4)GlcNAc(b1-2)Man
In short: as §1

[13] = target: GlcA3S(b1-3)Gal(b1-4)GlcNAc(b1-3)Gal(b1-4)Glc
In short: as §1

[14] = target: GlcNAc(a1-3)Gal(b1-4)GlcNAc
In short: as §1

[15] = target: GlcNAc(a1-4)Gal(b1-3)GlcNAc
In short: as §1

[16] = target: GlcNAc(a1-4)Gal(b1-4)GalNAc
In short: as §1

[17] = target: GlcNAc(a1-4)Gal(b1-4)GlcNAc
In short: as §1

[18] = target: GlcNAc(a1-4)Gal(b1-4)GlcNAc(b1-3)Gal(b1-4)Glc
In short: as §1

[19] = target: GlcNAc(a1-4)Gal(b1-4)GlcNAc(b1-3)Gal(b1-4)GlcNAc
In short: as §1

[20] = target: GlcNAc(a1-4)Gal(b1-4)GlcNAc(b1-3)Gal(b1-4)GlcNAc(b1-3)Gal(b1-4)GlcNAc
In short: as §1

[21] = target: GlcNAc(a1-4)Gal(b1-4)GlcNAc(b1-3)Gal(b1-4)[Fuc(a1-3)]GlcNAc(b1-3)Gal(b1-4)[Fuc(a1-3)]GlcNAc
In short: as §1

B1: CD34 (Homo sapiens), P28906 (protein)
chain: MGSSHHHHHHSSGLVPRGSHMSTSLATSPTKPYTSSSPILSDIKAEIKCSGIREVKLTQGICLEQNKTSSCAEFKKDRGEGLARVLCGEEQADADAGAQVCSLLLAQSEVRPQCLLLVLANRTEISSKLQLMKKHQSDLKKLGILDFTEQDVASHQSYSQKT
glycan array binding signal (z-score) (Gal6S(b1-4)Glc): -0.308
glycan array binding signal (z-score) (Gal6S(b1-4)Glc6S): 1.08
glycan array binding signal (z-score) (Gal6S(b1-4)GlcNAc): -0.141
glycan array binding signal (z-score) (Gal6S(b1-4)GlcNAc6S): 0.547
glycan array binding signal (z-score) (GalNAc(a1-3)Gal): -0.188
glycan array binding signal (z-score) (GalNAc(a1-3)GalNAc): 0.105
glycan array binding signal (z-score) [1]: -0.941
glycan array binding signal (z-score) [2]: -0.204
glycan array binding signal (z-score) (GalNAc(b1-3)Gal): 1.82
glycan array binding signal (z-score) [3]: -0.476
glycan array binding signal (z-score) [4]: 0.257
glycan array binding signal (z-score) [5]: -1.07
glycan array binding signal (z-score) (GalNAc(b1-3)GalNAc): -0.525
glycan array binding signal (z-score) (GalNAc(b1-3)GlcNAc): -0.213
glycan array binding signal (z-score) (GalNAc(b1-4)Gal(b1-4)Glc): -0.6
glycan array binding signal (z-score) (GalNAc(b1-4)GlcNAc): -0.172
glycan array binding signal (z-score) [6]: -0.65
glycan array binding signal (z-score) [7]: -0.615
glycan array binding signal (z-score) [8]: 0.667
glycan array binding signal (z-score) (GalNAc(b1-4)GlcNAc6S): -0.047
glycan array binding signal (z-score) (GalNAc(b1-6)GalNAc): -0.392
glycan array binding signal (z-score) (GalNAc3S(b1-4)GlcNAc): 0.416
glycan array binding signal (z-score) (GalNAc3S(b1-4)GlcNAc3S): 1.63
glycan array binding signal (z-score) [9]: 0.211
glycan array binding signal (z-score) (GalNAc4S6S(b1-4)GlcNAc): 1.06
glycan array binding signal (z-score) (GalNAc6S(b1-4)GlcNAc): -0.025
glycan array binding signal (z-score) (Glc(a1-4)Glc): 0.397
glycan array binding signal (z-score) [10]: 0.136
glycan array binding signal (z-score) (Glc(a1-6)Glc(a1-6)Glc): -0.373
glycan array binding signal (z-score) [11]: 0.615
glycan array binding signal (z-score) (Glc(b1-4)Glc): 0.603
glycan array binding signal (z-score) (Glc(b1-6)Glc): -1.19
glycan array binding signal (z-score) (GlcA(b1-3)Gal): -0.005
glycan array binding signal (z-score) (GlcA(b1-3)GlcNAc): -0.132
glycan array binding signal (z-score) (GlcA(b1-6)Gal): -0.021
glycan array binding signal (z-score) [12]: 0.913
glycan array binding signal (z-score) [13]: -0.551
glycan array binding signal (z-score) [14]: 0.288
glycan array binding signal (z-score) [15]: -0.399
glycan array binding signal (z-score) [16]: 0.052
glycan array binding signal (z-score) [17]: -0.196
glycan array binding signal (z-score) [18]: -0.657
glycan array binding signal (z-score) [19]: -0.41
glycan array binding signal (z-score) [20]: 0.008
glycan array binding signal (z-score) [21]: 0.937
